Binding data for 20 molecules are collected here from patent publication US20230272088A1 (SYNTHEKINE, published 2023).

No constants are given. Whether binding was seen depends on the method and setting. Some binding calls cover weakened binding; strength is not graded here.

To fix the notation:
T1: extracellular domain of hIFNGR2 (human, UniProt P38484 28-247, conjugated to Alexa647 (site not stated))
T1 construct: also called hIFNGR2-ECD; human IFNGR2 ECD
T1 sequence: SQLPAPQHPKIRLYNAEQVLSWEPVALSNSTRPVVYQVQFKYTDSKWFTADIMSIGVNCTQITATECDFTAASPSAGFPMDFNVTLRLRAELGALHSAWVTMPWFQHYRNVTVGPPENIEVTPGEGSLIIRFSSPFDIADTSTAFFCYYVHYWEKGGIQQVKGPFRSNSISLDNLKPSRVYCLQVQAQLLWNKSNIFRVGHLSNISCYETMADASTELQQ

T2: extracellular domain of mIFNGR2 (mouse)
T2 sequence (chain, conjugated to Alexa647 (site not stated)): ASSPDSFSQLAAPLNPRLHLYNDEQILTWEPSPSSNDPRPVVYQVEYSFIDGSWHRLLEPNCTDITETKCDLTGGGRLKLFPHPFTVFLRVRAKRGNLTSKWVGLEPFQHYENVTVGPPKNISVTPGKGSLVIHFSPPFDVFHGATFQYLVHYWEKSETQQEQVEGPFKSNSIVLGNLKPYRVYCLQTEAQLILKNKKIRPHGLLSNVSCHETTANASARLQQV

B1: DR957 (VHH)
VHH: QVQLVESGGGLVQAGGSLRLSCAPSGRTFSSYAMAWFRQPPGKEREFVAAITVSGASTYYADSVKGRFTISRDNAKNSMYLQMNSLKPEDTAVYYCAAGGPGTIFPDYDYWGQGTQVTVSS
B2: DR954 (VHH)
VHH: QVQLVESGGGLVQAGGSLRLSCAAARRTLHNFAMAWFRQAPGKEREFVAAISKGGGSADYADSVKGRFTISRDNAKNTVYLQMNSLKPEDTAVYYCAANDLASYSDSSYTSTSRYDYWGQGTQVTVSS
B3: DR942 (VHH)
VHH: QVQLVESGGGLVQAGGSLRLSCVASGRTFTGYAMGWFRQAPGKEREFVAVITWSGATTYYSASVKGRFTLSRDNAKNTVYLQMNSLKSEDTAVYYCAIRIRDGVSPENPNEYGYWGQGTQVTVSS
B4: DR955 (VHH)
VHH: QVQLVESGGGLVQTGGSLRLSCAASGRTFSSYAMAWFRQAPGKEREFVAAISILGGSADYEDSVQGRFTISRDNAKNTMYLQMNSLKPEDTAVYYCAARRPAPSDSYWSSTSYAYWGQGTLVTVSS
B5: DR921 (VHH)
VHH: QVQLVESGGGLVQAGDSLRLSCAASGRTFTFSTHNMGWFRQAPGKEREFVGGIMWTSRASYADSVKGRFTVSRDNAKNTVYLQMNSLKPEDTAVYYCAAAWYGNSGASYDYWGQGTQVTVSS
notes: also called anti-IFNGR1 sdAb VHH DR921
B6: DR945 (VHH)
VHH: LVESGGGLVQLVQAGGSLRLSCAASGRTFSGYNMGWFRQAPGKEREFVAAIAWAGSRTYYTDSVKGRFTISRDNAKNTMYLQMNTLRPEDTAVYYCAAHDETYYRLDRVDLYTHWGQGTQVTVSS
B7: DR949 (VHH)
VHH: QVQLVESGGGLVQAGGSLRLSCAASESILRFNVMSWLRQAPGKQRELVAVITSGGSTNYADSVKGRFTISRDNAKNTVYLQMNSLKPEDTAVYYCAADESGQYYWGQGTQVTVSS
notes: also called anti-IFNGR2 sdAb VHH DR949
B8: DR951 (VHH)
VHH: QVQLVESGGGLVQAGGSLRLSCAASGRTFGTSFGSLSMGWFRQAPGKEREFVAAISRNIGRTYYADSVKDRFTISRDNAKNTASLQMNSLEPEDTAVYNCAATNSYDDLRRSYAYDYWGQGTQVTVSS
notes: also called anti-IFNGR2 sdAb VHH DR951
B9: DR935 (VHH)
VHH: QVQLVESGGGLVQAGGSLRLSCAASGRAFSTYALGWFRQAPGKEREFIAAISRGGGSTDYADSVKGRFTISRDNAKSTVYLQMNSLKPEDTAVYYCAARSYSSSYYYSQYEYDYWGQGTQVTVSS
notes: also called anti-IFNGR2 sdAb VHH DR935
B10: DR937 (VHH)
VHH: QVQLVESGGGLVQPGGSLRLSCAASGRTFRSYSMGWFRQAPGKEREFVAAISWYSGTTYYADPVKGRFTISRDDAKNTLYLQMNSLKPEDTAVYYCAANEIATMESSNDYWGQGTQVTVSS
notes: also called anti-IFNGR2 sdAb VHH DR937
B11: DR947 (VHH)
VHH: QVQLVESGGGLVQAGGSLRLSCAASGGSFGRYTMGWYRQAPGKEREFVAVISWSGTNTYYADSVKGRFTISRDNAKNTMYLQMNDLKPEDTAVYYCAARETYYSHWDERMEYDYWGQGTQVTVSS
notes: also called anti-IFNGR2 sdAb VHH DR947
B12: DR941 (VHH)
VHH: QVQLVESGGGLVEAGGSLRLACAASGSIFRLNLMGWYRQAPGKQRELVAHVGTTGNTAYADSVKGRFTISKDDAKNMVFLQMNSLKPEDTAVYYCYADRWGQFSWGQGTQVTVSS
notes: also called anti-IFNGR2 sdAb VHH DR941
B13: DR943 (VHH)
VHH: QVQLVESGGGLVQAGGSLRLSCVASGRTVGYGMAWFRQAPGKQRDVVAAITWSGTSTYYPDSVKGRFTISRDNAKNTMYLQMSSLKPEDTAVYYCAAGSRRRVGVDVGGYDYWGQGTQVTVSS
notes: also called anti-IFNGR2 sdAb VHH DR943
B14: DR950 (VHH)
VHH: QVQLVESGGGLVQAGGSLRLSCAASGLTTSSAALAWFRQAPGKERELDPTITSGGGSTYYADSVKGRFTISKDNAKNTLYLQMSSLKPEDTAVYYCAARFYSTTYYYREHEYSDWGQGTQVTVSS
notes: also called anti-IFNGR2 sdAb VHH DR950
B15: DR936 (VHH)
VHH: EVQLVESGGGLVQAGGSLRLSCAASGRTFSSVAMAWFRQAPGKEREFVSAISSGGGSTDYADSVKGRFTISKDNAKNTMYLQMDSLKPEDTAVYYCAARDYSSRRYYQSRYEYDLWGLGTQVTVSS
notes: also called anti-IFNGR2 sdAb VHH DR936
B16: DR938 (VHH)
VHH: QVQLVESGGGLVQPGGSLRLSCTASGRPRTTYAMGWFRQAPGKEREIVAAISKAGGSTYVADSAKGRFAISKDNAKNTVYLQMNSLKPEDTAVYYCAARAGFAAQIFEYDYWGQGTLVTVSS
notes: also called anti-IFNGR2 sdAb VHH DR938
B17: DR946 (VHH)
VHH: QVQLVESGGGLVQPGESLRLSCAASGPFTRYAMGWFRQAPGKEREFVAAISWSSGNTYYVDSVKGRFTISRDNAKNTMYLQMNSLKPEDTAVYYCAANEVATMSGPDDYWGQGTQVTVSS
notes: also called anti-IFNGR2 sdAb VHH DR946
B18: DR948 (VHH)
VHH: QVQLVESGGGLVQAGDSLRLSCVASGSIDSSYYVSWFRQAPGKERDLVAAINWGDSRTAYADSVKGRFTISRDNAKNTVYLQMHSLRPNDTAVYYCASRIGLGGPVVAAPTRYPYWGQGTLVTVSS
notes: also called anti-IFNGR2 sdAb VHH DR948
B19: DR934 (VHH)
VHH: QVQLVESGGGLVQAGGSLRLSCAASGRSFANYAMGWFRQAPGKERETVAAISRGGGSTWYADSVKGRFTISKDNAKNTVYLQMNSLKPEDTAIYYCAARSYSGSYTYSFGEYDYWGQGTQVTVSS
notes: also called anti-IFNGR2 sdAb VHH DR934
B20: DR940 (VHH)
VHH: EVQLVESGGRLVQTGGSLRLSCAASGRTFSNYAMGWFRQAPGKEREFVAAISWYSGNTYYADSVKGRFTISRDNAKNTMYLQMNSLKPEDTAVYYCAANQIATMISVGDYWGQGTLVTVSS
notes: also called anti-IFNGR2 sdAb VHH DR940

For one assay, the target named is T1, extracellular domain of hIFNGR2. As to the kind of experiment: flow cytometry, yeast-displayed VHH, 100 nM Alexa647-conjugated antigen. The method, then:
Binding of individual VHH to human and murine antigen was tested by flow cytometry. Briefly, 2E5 yeast cells expressing a single sdAb clone were added to each well of a 96 well plate. The first plate was incubated with 100 nM of human antigen conjugated to Alexa647 whereas the second plate was incubated with 100 nM of murine antigen conjugated to Alexa647. Yeast cells were washed 3 times with PBS containing 1% bovine serum albumin. Yeast cells were analyzed using flow cytometry and clones showing a mean fluorescence intensity of greater than 1000 were considered as binding molecules. Specificity of sdAbs was confirmed by incubating yeast cells with a irrelevant protein conjugated to Alexa647. Positive clones were sequenced, and sequences analyzed to identify unique clonotypes.
In general terms: Flow cytometry measures light scatter and fluorescence of single cells or particles in a stream.
Regarding B1, the binding result is “binds”.
B2: the binding result is listed as “binds”.
In the case of B3, the binding result was “binds”.
On to B4, for which the binding entry is reported as “binds”.
Same read-out and setting: under B5 stands “binds”.
Take B6: the binding result is listed as “binds”.

A further assay has the same target. As to the kind of experiment: flow cytometry.
With B1, the binding result is on record as “binds”.
As for B2, the binding entry is “binds”.
Regarding B3, the binding entry was “binds”.
Turning to B4, the binding entry was “binds”.
As to B5, the binding entry was “binds”.
B6: the binding result is given as “binds”.

The target in the next assay is T2, extracellular domain of mIFNGR2 (mouse). Kind of assay: flow cytometry, yeast-displayed VHH, 100 nM Alexa647-conjugated antigen.
For the molecule B7, the binding result was “binds”.
On to B8, for which the binding result is listed as “binds”.
For the molecule B1, the binding entry is “binds”.
Regarding B9, the binding entry is reported as “binds”.
The same measure, in the same setting: next, B2: “binds”; B10: “binds”.
With B11, the binding result was “binds”.
Still for that read-out and setting: next, B12: “binds”.
Consider B13, for which the binding result was “binds”.
Consider B14, for which the binding entry is “binds”.
For the molecule B15, the binding result is “binds”.
On to B16, for which the binding entry is given as “binds”.
As for B3, the binding result is “binds”.
As for B17, the binding result is “binds”.
For B4, the binding result is listed as “binds”.
The same measure, in the same setting: next, B18: “binds”.
With B5, the binding entry was “binds”.
With B19, the binding entry was “binds”.
Take B6: the binding result is listed as “binds”.
On to B20, for which the binding result is “binds”.

The next assay shares this target. As to the kind of experiment: flow cytometry.
With B7, the binding entry is reported as “binds”.
Regarding B8, the binding result is listed as “binds”.
In the case of B1, the binding result was “binds”.
Consider B9, for which the binding result is recorded as “binds”.
As to B2, the binding result was “binds”.
As to B10, the binding entry is “binds”.
Consider B11, for which the binding entry is reported as “binds”.
Turning to B12, the binding result is on record as “binds”.
Turning to B13, the binding entry is “binds”.
B14: the binding result is recorded as “binds”.
Still for that read-out and setting: under B15 stands “binds”.
Regarding B16, the binding result is recorded as “binds”.
Still for that read-out and setting: next, B3: “binds”; B17: “binds”; B4: “binds”.
Regarding B18, the binding entry is reported as “binds”.
The same measure, in the same setting: under B5 stands “binds”.
Consider B19, for which the binding entry is recorded as “binds”.
With B6, the binding entry is “binds”.
For B20, the binding entry is “binds”.
